Measurements from patent publication US8188011B1, “Optimization of ligand affinity for RNA targets using mass spectrometry” (Isis Pharmaceuticals, Inc., priority 2000, dated 2012).

System: 16S ribosomal RNA fragment
Test: Relative gas-phase activation energies (EA) for dissociation of ligand-16S complexes, FTICR
Assay type: binding, bacterial
Settings: normalized to the activation energy for loss of ammonia

| SMILES | Relative EA | further results |
| --- | --- | --- |
| Nc1ccnc(N)n1 [DAP, 2,4-diaminopyrimidine] | 2.16 | Relative EA (listed as 2,4-Diaminopyrimdine): 2.16 ± 0.11 |
| N[C@H]1C(O)O[C@H](CO)[C@@H](O)[C@@H]1O (stereo partly shown) [GA, glucosamine] | 2.86 | Relative EA (listed as Glucosamine): 2.86 ± 0.21 |
| N=C(N)Nc1nc2ccccc2[nH]1 [GBI, 2-guanidylbenzimidazole] | 2.12 | Relative EA (listed as 2-Guanylbenzimidazole): 2.12 ± 0.09 |
| NC(=O)c1[nH]cnc1N [AICA, 4-aminoimidazole-5-carboxamide] | 2.04 | Relative EA (listed as 4-Aminoimidazolecarboxamide): 2.04 ± 0.16 |
| N=C(N)c1ccc(N)cc1 [ABA, 4-aminobenzamidine] | 4.00 | Relative EA (listed as 4-aminobenzamidine): 4.00 ± 0.28 |
